Source: article PMC11486366
No constants are given. Whether binding was seen depends on the method and setting. Binding seen in cells or lysates may run through a third protein. Here binding means that the protein was enriched with, or labelled near, the bait; the list need not be complete.

Target: LMF1-HA (Lasso Maintenance Factor 1, HA-tagged) (Toxoplasma gondii)
Test: proximity labelling; Biotinylation by Antibody Recognition (BAR) in LMF1-HA parasites: fixed, permeabilised, primary antibody and HRP-conjugated secondary antibody, biotin phenol and hydrogen peroxide; streptavidin beads, mass spectrometry; parental strain as control

B1: microtubule-associated protein SPM2 (protein, UniProt S8GR18 1-357)
chain: MALPLDAWATAAHGSKAYVARSADVSRGACFSPAGVTRVSHQGIEPARPAGVSSRRLTQLRLAMSQQPEDRAHAPRGPTAYSCTALRDNVNEILRSATIPRDTDPVAAVLDRKRVDDYAGMRSDGINELRTPSHRWSAEVGKKRGLMTKNESVFVSDVLEHHGRPIDDSPEFQHPRVAAYLQQQCKPKCRSLQRHYGPDELHKAFYTKFEVVDKTTGRTEIMTARRPGSAAAIISLCNFDAYSTRSHKATSAQKQVSNIESTPLGLVPRKGAELPHKPSFTQTAASVCMKRSQLRCQDSWLTPSSDAPTIRHLGQSRRHVALPWLHRPTNRILQHLPQPRVQSRLVCQVDHAKKSPL
binding: binds
